Data as given in PubChem BioAssay AID1487 (National Center for Advancing Translational Sciences (NCATS), 2009).
This is one part of the list. The main result of the screen is listed elsewhere. These columns were measured beside it and carry no call. The list favours compounds with an active or inconclusive main result. The note in brackets gives the kind of curve behind each potency; many fits are weak.

Test: qHTS Assay for Modulators of Lamin A Splicing
Conditions: HeLa LMNA splicing GFP/RFP minigene ratio, 48 h
Source text: NCGC Assay Overview: Hutchinson-Gilford Progeria Syndrome (HGPS) is a pediatric premature aging disease caused by a spontaneous mutation in the lamin A/C (LMNA) gene. The mutation activates a cryptic splice site in the LMNA pre-mRNA which results in production of a pre-lamin A protein that cannot be processed properly. The mutant protein accumulates in the nucleus and negatively affects numerous cellular functions. Correction of the splicing defect in HGPS patient cells using a targeted oligonucleotide (exo11) leads to reversal of the cellular disease phenotypes. To identify small molecule modulators of aberrant LMNA splicing, a homogenous assay was constructed in HeLa cells that used a GFP containing minigene to report on correction of aberrant splicing in lamin A and a RFP (DsRed2) to report on cell viability, uniformity and nonspecific effects on the assay signal. This assay was adapted to laser-scanning microplate cytometry (Acumen, TTP Labtech) where miniaturization of the assay to a 1,536-well plate format was possible. References: Bowen, W. P.; Wylie, P. G. Application of Laser-Scanning Fluorescence Microplate Cytometry in High Content Screening. Assay Drug Dev Technol 2006;4:209-221. Scaffidi P, Misteli T. Reversal of the cellular phenotype in the premature aging disease Hutchinson-Gilford progeria syndrome. Nat.
NCGC Assay Protocol Summary: Reagents/Controls: Stable clones expressing DsRed2 and lamin A-EGFP were generated by Cell and Molecular Technologies in S3 HeLa cells. HeLa cells were prepared for the assay when they were 70-90% confluent. The cells were counted and resuspended in Opti-MEM I (no phenol red; Gibco), 2% FBS, 1% penicillin/ streptomycin (Gibco) at concentration of 120 cells/uL concentration. The suspension was passed through a Falcon basket filter with pore size 40um (Beckton Dickson). Control titrations: column […] 1536-well plate contained a sixteen point titration (1:2 dilutions) in duplicate of ancitabine (Sigma: A8598) beginning at 40 uM final concentration. Column 2 contained a sixteen point titration (1:2 dilutions) of cycloheximide beginning at 1.4 mM final concentration. Column 3 contained ancitabine at 40 uM and column 4 contained was the vehicle control (0.5% DMSO final concentration). Assay Steps: 5 uL of HeLa cells were plated in Aurora LoBase black clear bottom (cyclic-olefin polymer) 1536-well plates at a final density of 600 cells/well. Controls and library compounds were added with a 1536-well pin array using the Kalypsys pin-tool. The plates were then incubated for 48 hrs in a cell-culture incubator (37 °C; 5% CO2, 98% humidity). Following incubation the plates were read on the Acumen Explorer using the 488 nm laser. Data was collected on objects between 10 and 100 um in size. Cell objects were defined by a 15 um width x 10 um depth filter. The ratio of the total object intensity in PMT1 (500-530 nm emission; GFP) over PMT3 (575-640 nm emission; RFP) was calculated for analysis. Keywords: NIH Roadmap, MLSCN, MLI, MLSMR, qHTS, NCGC, lamin A, Progeria, RNA splicing.

[1] = measured here: RFP viability control channel
[2] = measured here: GFP splicing reporter channel

Structure (SMILES) | AC50 [1] | AC50 [2]
COCCN(C(=O)CSc1nnc(C)n1-c1ccccc1)c1c(N)n(Cc2ccccc2)c(=O)[nH]c1=O | 0.00794 µM [falling, full curve, poor fit] | –
Cn1c(=O)c2c(nc(Br)n2CCSc2ncccn2)n(C)c1=O | – | 3.16 µM [rising, partial curve]
COC/C=C/C1=CC2=CC(=O)C(C)(OC(=O)c3cnc4ccccc4n3)C(=O)C2=CN1CC1CC1 (stereo not given) | 1.26 µM [rising, single point] | 1.26 µM [rising, single point]
Cc1ccc(NC(=O)CCCCCNS(=O)(=O)c2ccc(C)cc2)cc1 | 12.6 µM [rising, partial curve] | 10 µM [rising, partial curve]
Nc1ncnc2c1nc(Br)n2C1OC(CO)C(O)C1O (stereo not given) | 7.08 µM [rising, partial curve] | 4.47 µM [rising, full curve]
CCc1ccc2c(c1)c1nc(C)sc1n2CC | – | 20 µM [falling, single point]
Cc1[nH]nc2c1C(c1ccsc1)C1=C(CC(C)(C)CC1=O)N2 (stereo not given) | 1.58 µM [rising, full curve, poor fit] | –
CCN(CC)C(=S)Nc1ccc(Cl)c(Cl)c1 | 15.8 µM [rising, partial curve] | 14.1 µM [rising, single point]
C#CCOCCOCCOCCNc1nc(N2CCN(C(=O)[C@H](C(C)C)n3cc(CCO)nn3)CC2)nc(N2CCN(C(=O)[C@H](C(C)C)n3cc(CCO)nn3)CC2)n1 | – | 3.98 µM [falling, partial curve, poor fit]
O=C(Nc1ccc(Cl)c(Cl)c1)OCCNC(=O)c1ccncc1 | 0.158 µM [rising, full curve, poor fit] | –
CC(C)c1ccc(NC(=O)c2cc(S(=O)(=O)N3CCc4ccccc4C3)ccc2F)cc1 | – | 7.08 µM [rising, partial curve, poor fit]
Cc1ccc(CC(=O)Nc2cc([N+](=O)[O-])ccc2F)cc1 | 0.251 µM [falling, full curve] | 0.316 µM [falling, partial curve]
CC[n+]1c(/C=C2\C=C(C)CC(C)C2)sc2ccccc21 (stereo not given) | – | 11.2 µM [rising, single point]
Cc1ccc(Nc2nc(CSc3nnc(-c4cccnc4)n3-c3ccccc3F)cs2)cc1 | 17.8 µM [rising, partial curve] | 11.2 µM [rising, partial curve]
COc1c(C)cc(C(=O)C2CCCN(C(=O)Cn3ccc(C)n3)C2)cc1C (stereo not given) | – | 3.16 µM [rising, single point]
Oc1ccccc1-c1cc(C(F)(F)C(F)F)[nH]n1 | 15.8 µM [rising, single point] | 11.2 µM [rising, partial curve]
COc1ccc(CNc2ncnc3c2cnn3-c2ccc(Cl)cc2)cc1 | 0.501 µM [falling, full curve] | –
O=C(CSc1nc2ccc(Cl)cc2[nH]1)NCCc1ccccc1 | 14.1 µM [rising, single point] | 14.1 µM [rising, single point]
Brc1ccc(C2C3=C(Nc4ncnn42)c2ccccc2OC3c2ccncc2)cc1 (stereo not given) | 31.6 µM [rising, single point] | 35.5 µM [rising, single point]
Cc1ccc(CSC2=Nc3ccccc3C3=NC(CCC(=O)NCc4cccs4)C(=O)N23)c(C)c1 (stereo not given) | 10 µM [rising, partial curve, poor fit] | 10 µM [rising, partial curve, poor fit]
O=C(O)c1ccccc1C(=O)NCC(O)c1ccccc1 (stereo not given) | – | 3.55 µM [falling, partial curve, poor fit]
CC(=O)c1c(C)[nH]c(C(=O)OCC(=O)Nc2cc(S(=O)(=O)N3CCCCC3)ccc2C)c1C | 12.6 µM [rising, partial curve] | –
CCOC(=O)c1ccc(N2CCN(c3cc(Cl)ccc3C)CC2)c(NC(=O)Nc2ccc(OCC)cc2)c1 | 35.5 µM [rising, single point] | 20 µM [rising, single point]
CCC(Oc1ccccc1)C(=O)N1CCN(Cc2cc(=O)n3nc(-c4cccc(C)c4)sc3n2)CC1 (stereo not given) | 11.2 µM [falling, partial curve] | 15.8 µM [falling, single point]
COc1ccc(-c2cc(-c3cc(OC)ccc3O)[nH]n2)cc1 | 10 µM [rising, single point] | 7.08 µM [rising, partial curve, poor fit]
O=C(NCCC1=CCCCC1)NC12CC3CC(CC(C3)C1)C2 | 17.8 µM [rising, single point] | –
Cn1c(CCN2CCN(c3ccc(F)cc3)CC2)nc2cc(NC(=O)c3ccco3)ccc21 | 12.6 µM [rising, partial curve] | 0.631 µM [rising, partial curve, poor fit]
CC(C)OC(=O)CC12CN3CN(C1)CC(CC(=O)OC(C)C)(C3)C2=O | – | 3.55 µM [rising, single point]

An excerpt of these results, tab-delimited.
Structure (SMILES)	AC50 [1]	AC50 [2]
CCc1ccc2c(c1)c1nc(C)sc1n2CC	–	20 µM [falling, single point]
CCN(CC)C(=S)Nc1ccc(Cl)c(Cl)c1	15.8 µM [rising, partial curve]	14.1 µM [rising, single point]

Additional results:

Structure (SMILES) | AC50 [1] | AC50 [2]
CC(=O)c1oc2ccccc2c1NC(=O)CN1CCCCC1 | 35.5 µM [rising, single point] | –
NC(=O)NCC(=O)N1CCC(C(O)(c2ccccc2)c2ccccc2)CC1 | 4.47 µM [falling, full curve, poor fit] | –
c1ccc(-n2ncc3c2ncn2nc(CSc4nc5ccccc5s4)nc32)cc1 | 5.62 µM [rising, single point] | –
[O]=[Bi][O][Bi]=[O] | 3.16 µM [rising, partial curve, poor fit] | –
CCN(Cc1cnn(C)c1)Cc1nc(Cc2ccccc2Cl)no1 | 5.01 µM [falling, full curve, poor fit] | –
CSc1nc(N)c(C(=O)Nc2ccc([N+](=O)[O-])cc2)s1 | – | 3.16 µM [falling, partial curve, poor fit]
COc1cc(-n2nnnc2SCC(=O)N2CCN(c3ccc(F)cc3)CC2)c(OC)cc1Cl | 35.5 µM [rising, single point] | –
COc1cccc(C2NC(=O)c3ccccc3O2)c1OC (stereo not given) | 35.5 µM [rising, single point] | –
COc1cccc(-c2nc(-c3ccccc3)nc(N3CCN(C)CC3)c2C#N)c1 | 14.1 µM [rising, single point] | –
COc1ccc(CCNC(=O)c2cccnc2)cc1OC | – | 20 µM [rising, partial curve, poor fit]
CC(C)(C)n1nnnc1CN1CCN(C(c2ccccc2)c2ccccc2)CC1 | 14.1 µM [rising, single point] | –
COc1ccc(CCN2C(=O)c3[nH]nc(-c4ccccc4O)c3C2c2cccc(Cl)c2)cc1 (stereo not given) | 12.6 µM [falling, partial curve] | 11.2 µM [falling, partial curve]
O=C(COc1ccccc1F)Nc1nnc(SCc2cc(=O)c3ccccc3[nH]2)s1 | – | 0.501 µM [rising, full curve, poor fit]
C=CCc1c(C)nc2nc(SCC(=O)Nc3ccc(C)c(C)c3)nn2c1C | 25.1 µM [falling, partial curve, poor fit] | 35.5 µM [falling, single point]
O=[N+]([O-])c1ccc(S(=O)(=O)N2CCSC2c2ccco2)cc1 (stereo not given) | – | 0.2 µM [rising, full curve]
O=C(CSc1nc2ncc(Cl)cc2[nH]1)NC1CCS(=O)(=O)C1 (stereo not given) | 2.82 µM [falling, full curve] | –
CSCC[C@H](NC(=O)COc1ccc(Cl)cc1Cl)c1nc2ccccc2[nH]1 | 22.4 µM [rising, single point] | –
Cc1cc(F)ccc1S(=O)(=O)N1CCCOC1CNC(=O)C(=O)NCCC1=CCCCC1 (stereo not given) | – | 0.794 µM [rising, partial curve, poor fit]
COCC(C)n1c(C)cc(C(=O)CSc2nnnn2-c2ccc(O)cc2)c1C (stereo not given) | – | 0.0224 µM [falling, full curve, poor fit]
CC(C)(C)c1ccc(CNc2cc(N3CCOCC3)ccc2[N+](=O)[O-])cc1 | 31.6 µM [rising, single point] | 11.2 µM [rising, partial curve, poor fit]
CCC1CCCCN1C(=O)CSc1nnc(-c2ccc3c(c2)OCCO3)o1 (stereo not given) | 15.8 µM [rising, single point] | –
O=c1c2c(nc3c(-c4ccccc4)c[nH]n13)CCC2 | – | 17.8 µM [falling, single point]
COc1ccc(C2C(C#N)=C(N)N(Nc3ccccc3)C3=C2C(=O)CC(C)(C)C3)cc1C (stereo not given) | 12.6 µM [falling, partial curve] | 35.5 µM [falling, single point]
O=C(Oc1ccc(-c2ccccc2)cc1)N1CCCCC1 | 31.6 µM [rising, single point] | 35.5 µM [rising, single point]
CCOc1ccc(S(=O)(=O)n2cc(-c3ccc(F)cc3)c(N)n2)cc1 | 35.5 µM [rising, single point] | –
COc1ccc(CCNC(=O)c2cnn(-c3ccc(F)cc3)c2C2CCN(C(=O)OC(C)(C)C)CC2)c(OC)c1 | – | 35.5 µM [falling, single point]
Cc1c(NC(=O)CSc2nnc3c4ccccc4n(CCc4ccccc4)c3n2)c(=O)n(-c2ccccc2)n1C | 35.5 µM [falling, single point] | 6.31 µM [falling, partial curve]

Filtered by structure: those above with a thiophene ring, fused or not
Structure (SMILES) | AC50 [1] | AC50 [2]
Cc1[nH]nc2c1C(c1ccsc1)C1=C(CC(C)(C)CC1=O)N2 (stereo not given) | 1.58 µM [rising, full curve, poor fit] | –
Cc1ccc(CSC2=Nc3ccccc3C3=NC(CCC(=O)NCc4cccs4)C(=O)N23)c(C)c1 (stereo not given) | 10 µM [rising, partial curve, poor fit] | 10 µM [rising, partial curve, poor fit]
